Measurements published in publication PMC6988309, “Preclinical efficacy for a novel tyrosine kinase inhibitor, ArQule 531 against acute myeloid leukemia” (Journal of Hematology & Oncology, 2020).
Values joined by “and” are separate entries in the source; they are usually repeats but may differ in a detail not shown here. Equal values may be shown once.

Tests used:
[1] = system: Ba/F3 FLT3-ITD pMIT SYK-TEL

`CO[C@@H]1[C@H](N(C)C(=O)c2ccccc2)C[C@H]2O[C@]1(C)n1c3ccccc3c3c4c(c5c6ccccc6n2c5c31)C(=O)NC4` [Midostaurin] was tested, and the IC50 (Ba/F3 FLT3-ITD Parental) was 0.0762 µM and the IC50 [1] was 0.404 µM and 0.23 µM and 0.281 µM.
